Differences between knockout arms are mostly noise.
System: BT-20
Experiment: relative cell number vs DMSO control (72 h) (% of DMSO); higher = less growth inhibition (more cells)
Experimental: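 QMAP-Seq: a pool of 5 breast cancer cell lines (ZR-75-1, SKBR3, HCC-38, MDA-MB-231, BT-20), each carrying 12 doxycycline-inducible Cas9 sgRNA perturbations (11 knockouts plus non-targeting sgNT), was treated with compounds for 72 h at four 10-fold doses (10 nM-10 uM or 1 nM-1 uM range). Barcodes were amplified and sequenced, and cell number was interpolated from 293T spike-in standard curves. The result is expressed as % of the median of DMSO wells. Two biological replicates.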

C=C(C)[C@@H]1CC[C@]2(C(=O)O)CC[C@]3(C)[C@H](CC[C@@H]4[C@@]5(C)CC[C@H](O)C(C)(C)[C@@H]5CC[C@]43C)[C@@H]12 [BetulinicAcid]
Conditions	relative cell number
sgRNA knockout: sgATF3, 10 nM	101
sgRNA knockout: sgATF3, 100 nM	87.2
sgRNA knockout: sgATF3, 1000 nM	86
sgRNA knockout: sgATF3, 10000 nM	97.97
sgRNA knockout: sgATF4, 10 nM	91.4
sgRNA knockout: sgATF4, 100 nM	83.2
sgRNA knockout: sgATF4, 1000 nM	87.3
sgRNA knockout: sgATF4, 10000 nM	105
sgRNA knockout: sgATF6, 10 nM	99.8
sgRNA knockout: sgATF6, 100 nM	91.8
sgRNA knockout: sgATF6, 1000 nM	90.6
sgRNA knockout: sgATF6, 10000 nM	94
sgRNA knockout: sgATG7, 10 nM	99.2
sgRNA knockout: sgATG7, 100 nM	83.9
sgRNA knockout: sgATG7, 1000 nM	93.4
sgRNA knockout: sgATG7, 10000 nM	107
sgRNA knockout: sgERN1, 10 nM	83.2
sgRNA knockout: sgERN1, 100 nM	92.5
sgRNA knockout: sgERN1, 1000 nM	95.5
sgRNA knockout: sgERN1, 10000 nM	96.2
sgRNA knockout: sgHSF1, 10 nM	99.8
sgRNA knockout: sgHSF1, 100 nM	79.4
sgRNA knockout: sgHSF1, 1000 nM	84.4
sgRNA knockout: sgHSF1, 10000 nM	95.7
sgRNA knockout: sgHSF2, 10 nM	86
sgRNA knockout: sgHSF2, 100 nM	89.67
sgRNA knockout: sgHSF2, 1000 nM	83.1
sgRNA knockout: sgHSF2, 10000 nM	94.6
sgRNA knockout: sgKEAP1, 10 nM	94
sgRNA knockout: sgKEAP1, 100 nM	86.9
sgRNA knockout: sgKEAP1, 1000 nM	98.1
sgRNA knockout: sgKEAP1, 10000 nM	97.7
sgRNA knockout: sgNFE2L2, 10 nM	98.2
sgRNA knockout: sgNFE2L2, 100 nM	106
sgRNA knockout: sgNFE2L2, 1000 nM	86.4
sgRNA knockout: sgNFE2L2, 10000 nM	95.46
sgRNA knockout: sgSLC35F2, 10 nM	94.1
sgRNA knockout: sgSLC35F2, 100 nM	90.8
sgRNA knockout: sgSLC35F2, 1000 nM	97.7
sgRNA knockout: sgSLC35F2, 10000 nM	93.4
sgRNA knockout: sgXBP1, 10 nM	94.2
sgRNA knockout: sgXBP1, 100 nM	92.2
sgRNA knockout: sgXBP1, 1000 nM	86.9
sgRNA knockout: sgXBP1, 10000 nM	100.5

C[C@]12CC[C@@H]3c4ccc(O)cc4C[C@@H](CCCCCCCCC[S+]([O-])CCCC(F)(F)C(F)(F)F)[C@H]3[C@@H]1CC[C@@H]2O (some centres not stated) [Fulvestrant]
Conditions	relative cell number
sgRNA knockout: sgATF3, 10 nM	96.5
sgRNA knockout: sgATF3, 100 nM	88.58
sgRNA knockout: sgATF3, 1000 nM	94.3
sgRNA knockout: sgATF3, 10000 nM	93.2
sgRNA knockout: sgATF4, 10 nM	89.22
sgRNA knockout: sgATF4, 100 nM	81.7
sgRNA knockout: sgATF4, 1000 nM	97.2
sgRNA knockout: sgATF4, 10000 nM	98.9
sgRNA knockout: sgATF6, 10 nM	85.3
sgRNA knockout: sgATF6, 100 nM	84.7
sgRNA knockout: sgATF6, 1000 nM	83.6
sgRNA knockout: sgATF6, 10000 nM	89.9
sgRNA knockout: sgATG7, 10 nM	87.1
sgRNA knockout: sgATG7, 100 nM	83.8
sgRNA knockout: sgATG7, 1000 nM	107
sgRNA knockout: sgATG7, 10000 nM	93.42
sgRNA knockout: sgERN1, 10 nM	102
sgRNA knockout: sgERN1, 100 nM	71.3
sgRNA knockout: sgERN1, 1000 nM	86.1
sgRNA knockout: sgERN1, 10000 nM	92.7
sgRNA knockout: sgHSF1, 10 nM	92.5
sgRNA knockout: sgHSF1, 100 nM	82.8
sgRNA knockout: sgHSF1, 1000 nM	95.9
sgRNA knockout: sgHSF1, 10000 nM	87.8
sgRNA knockout: sgHSF2, 10 nM	118
sgRNA knockout: sgHSF2, 100 nM	84
sgRNA knockout: sgHSF2, 1000 nM	88.7
sgRNA knockout: sgHSF2, 10000 nM	97.1
sgRNA knockout: sgKEAP1, 10 nM	91.1
sgRNA knockout: sgKEAP1, 100 nM	90.4
sgRNA knockout: sgKEAP1, 1000 nM	98.1
sgRNA knockout: sgKEAP1, 10000 nM	86.2
sgRNA knockout: sgNFE2L2, 10 nM	95.1
sgRNA knockout: sgNFE2L2, 100 nM	92.5
sgRNA knockout: sgNFE2L2, 1000 nM	87.5
sgRNA knockout: sgNFE2L2, 10000 nM	101
sgRNA knockout: sgSLC35F2, 10 nM	88.32
sgRNA knockout: sgSLC35F2, 100 nM	86.7
sgRNA knockout: sgSLC35F2, 1000 nM	91.2
sgRNA knockout: sgSLC35F2, 10000 nM	95.3
sgRNA knockout: sgXBP1, 10 nM	78.4
sgRNA knockout: sgXBP1, 100 nM	94.6
sgRNA knockout: sgXBP1, 1000 nM	89.4
sgRNA knockout: sgXBP1, 10000 nM	87.6

CCn1c(=O)c2c(nc(/C=C/c3ccc(OC)c(OC)c3)n2C)n(CC)c1=O [Istradefylline]
Conditions	relative cell number
sgRNA knockout: sgATF3, 10 nM	102
sgRNA knockout: sgATF3, 100 nM	92
sgRNA knockout: sgATF3, 1000 nM	107
sgRNA knockout: sgATF3, 10000 nM	95.4
sgRNA knockout: sgATF4, 10 nM	94.4
sgRNA knockout: sgATF4, 100 nM	96.55
sgRNA knockout: sgATF4, 1000 nM	91.9
sgRNA knockout: sgATF4, 10000 nM	112
sgRNA knockout: sgATF6, 10 nM	106
sgRNA knockout: sgATF6, 100 nM	86.7
sgRNA knockout: sgATF6, 1000 nM	109
sgRNA knockout: sgATF6, 10000 nM	103
sgRNA knockout: sgATG7, 10 nM	97.7
sgRNA knockout: sgATG7, 100 nM	98.5
sgRNA knockout: sgATG7, 1000 nM	92.3
sgRNA knockout: sgATG7, 10000 nM	108
sgRNA knockout: sgERN1, 10 nM	95.3
sgRNA knockout: sgERN1, 100 nM	90.5
sgRNA knockout: sgERN1, 1000 nM	87
sgRNA knockout: sgERN1, 10000 nM	83.7
sgRNA knockout: sgHSF1, 10 nM	88.5
sgRNA knockout: sgHSF1, 100 nM	106
sgRNA knockout: sgHSF1, 1000 nM	94.2
sgRNA knockout: sgHSF1, 10000 nM	112
sgRNA knockout: sgHSF2, 10 nM	102
sgRNA knockout: sgHSF2, 100 nM	110
sgRNA knockout: sgHSF2, 1000 nM	78.5
sgRNA knockout: sgHSF2, 10000 nM	102
sgRNA knockout: sgKEAP1, 10 nM	95.2
sgRNA knockout: sgKEAP1, 100 nM	95.1
sgRNA knockout: sgKEAP1, 1000 nM	90.1
sgRNA knockout: sgKEAP1, 10000 nM	99.8
sgRNA knockout: sgNFE2L2, 10 nM	111
sgRNA knockout: sgNFE2L2, 100 nM	118
sgRNA knockout: sgNFE2L2, 1000 nM	115
sgRNA knockout: sgNFE2L2, 10000 nM	113
sgRNA knockout: sgSLC35F2, 10 nM	97.7
sgRNA knockout: sgSLC35F2, 100 nM	102
sgRNA knockout: sgSLC35F2, 1000 nM	87.4
sgRNA knockout: sgSLC35F2, 10000 nM	108
sgRNA knockout: sgXBP1, 10 nM	100
sgRNA knockout: sgXBP1, 100 nM	101
sgRNA knockout: sgXBP1, 1000 nM	94.2
sgRNA knockout: sgXBP1, 10000 nM	112

Source: the supplement of paper PMC7661543
